From publication PMC7005036
Results are given in words; binding and its absence hold for the method and conditions named. Binding seen in cells or lysates may run through a third protein. A result given as binding can be weak or reduced; the word gives no strength. Tags and fused reporters may be left off the sequences shown.

Sequences of proteins named here, by UniProt entry; tags and fusion partners are left off. A change or cut given only in a name is not applied to a line headed by its entry.
UniProt Q9M9X9: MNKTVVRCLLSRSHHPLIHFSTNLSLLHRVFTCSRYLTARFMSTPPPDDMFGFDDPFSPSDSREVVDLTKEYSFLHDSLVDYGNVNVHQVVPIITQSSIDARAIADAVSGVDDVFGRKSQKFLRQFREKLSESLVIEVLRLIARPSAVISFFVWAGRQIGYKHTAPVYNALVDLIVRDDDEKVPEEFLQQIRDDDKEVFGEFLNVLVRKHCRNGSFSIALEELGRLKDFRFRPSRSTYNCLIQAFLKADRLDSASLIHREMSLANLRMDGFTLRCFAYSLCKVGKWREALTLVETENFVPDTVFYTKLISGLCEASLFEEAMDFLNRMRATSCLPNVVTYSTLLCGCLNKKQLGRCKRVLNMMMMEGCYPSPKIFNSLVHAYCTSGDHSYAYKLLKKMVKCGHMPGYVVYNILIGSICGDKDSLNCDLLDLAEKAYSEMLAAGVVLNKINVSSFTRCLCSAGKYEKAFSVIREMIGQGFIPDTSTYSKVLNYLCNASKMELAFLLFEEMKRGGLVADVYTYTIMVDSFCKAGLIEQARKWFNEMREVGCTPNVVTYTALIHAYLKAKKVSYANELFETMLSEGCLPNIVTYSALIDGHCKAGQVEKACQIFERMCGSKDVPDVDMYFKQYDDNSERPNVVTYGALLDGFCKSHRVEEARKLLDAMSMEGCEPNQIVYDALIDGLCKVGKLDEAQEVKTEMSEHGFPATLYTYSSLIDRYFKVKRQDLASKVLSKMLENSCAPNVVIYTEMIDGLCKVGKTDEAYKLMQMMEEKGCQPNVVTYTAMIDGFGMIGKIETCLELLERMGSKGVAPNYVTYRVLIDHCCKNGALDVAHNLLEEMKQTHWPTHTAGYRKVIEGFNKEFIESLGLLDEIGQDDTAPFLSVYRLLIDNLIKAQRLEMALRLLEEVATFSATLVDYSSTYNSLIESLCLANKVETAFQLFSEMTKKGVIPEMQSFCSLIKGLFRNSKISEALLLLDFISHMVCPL
UniProt Q8VYD9: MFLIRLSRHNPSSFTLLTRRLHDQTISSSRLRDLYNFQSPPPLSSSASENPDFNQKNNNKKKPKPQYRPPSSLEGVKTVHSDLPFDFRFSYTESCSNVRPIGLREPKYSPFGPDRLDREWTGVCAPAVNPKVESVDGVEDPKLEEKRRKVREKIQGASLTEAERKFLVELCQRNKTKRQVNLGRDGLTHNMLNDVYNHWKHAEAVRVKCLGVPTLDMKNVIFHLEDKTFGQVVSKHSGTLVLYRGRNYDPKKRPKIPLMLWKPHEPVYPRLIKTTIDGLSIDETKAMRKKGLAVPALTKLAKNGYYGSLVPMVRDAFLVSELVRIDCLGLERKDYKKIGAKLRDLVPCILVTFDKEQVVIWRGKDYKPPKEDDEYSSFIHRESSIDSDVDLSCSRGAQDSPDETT
UniProt Q9LUW5: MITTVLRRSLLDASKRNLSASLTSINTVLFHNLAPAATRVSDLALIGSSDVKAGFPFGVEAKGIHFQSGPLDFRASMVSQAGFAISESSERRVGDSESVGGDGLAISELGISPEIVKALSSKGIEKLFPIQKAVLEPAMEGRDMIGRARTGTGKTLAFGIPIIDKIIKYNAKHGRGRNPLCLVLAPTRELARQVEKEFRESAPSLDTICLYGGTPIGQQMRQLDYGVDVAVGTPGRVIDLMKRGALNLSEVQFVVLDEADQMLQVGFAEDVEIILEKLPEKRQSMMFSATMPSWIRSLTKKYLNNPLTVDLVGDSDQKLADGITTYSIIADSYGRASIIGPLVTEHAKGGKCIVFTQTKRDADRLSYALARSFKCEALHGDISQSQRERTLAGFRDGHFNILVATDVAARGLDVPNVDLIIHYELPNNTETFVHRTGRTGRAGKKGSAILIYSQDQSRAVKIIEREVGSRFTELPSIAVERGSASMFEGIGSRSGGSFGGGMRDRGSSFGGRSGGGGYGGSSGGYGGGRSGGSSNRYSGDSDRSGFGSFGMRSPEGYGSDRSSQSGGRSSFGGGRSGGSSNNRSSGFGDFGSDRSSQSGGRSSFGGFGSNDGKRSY

T1: WTF9-GFP, full-length WHAT’S THIS FACTOR 9 with C-terminal GFP (Arabidopsis thaliana) (UniProt Q9ZUZ6)
T1 sequence: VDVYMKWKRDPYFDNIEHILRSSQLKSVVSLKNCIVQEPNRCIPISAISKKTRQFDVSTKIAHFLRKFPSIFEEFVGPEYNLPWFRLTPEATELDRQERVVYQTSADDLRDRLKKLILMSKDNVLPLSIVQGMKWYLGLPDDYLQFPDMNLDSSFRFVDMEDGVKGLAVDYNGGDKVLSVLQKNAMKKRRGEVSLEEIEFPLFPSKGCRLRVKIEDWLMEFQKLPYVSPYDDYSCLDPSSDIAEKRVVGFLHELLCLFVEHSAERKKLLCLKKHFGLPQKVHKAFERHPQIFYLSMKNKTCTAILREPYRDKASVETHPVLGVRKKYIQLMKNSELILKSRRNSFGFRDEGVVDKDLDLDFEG

T2: CLuc-MID1 (Arabidopsis thaliana) (UniProt Q9LNC0)
T2 sequence: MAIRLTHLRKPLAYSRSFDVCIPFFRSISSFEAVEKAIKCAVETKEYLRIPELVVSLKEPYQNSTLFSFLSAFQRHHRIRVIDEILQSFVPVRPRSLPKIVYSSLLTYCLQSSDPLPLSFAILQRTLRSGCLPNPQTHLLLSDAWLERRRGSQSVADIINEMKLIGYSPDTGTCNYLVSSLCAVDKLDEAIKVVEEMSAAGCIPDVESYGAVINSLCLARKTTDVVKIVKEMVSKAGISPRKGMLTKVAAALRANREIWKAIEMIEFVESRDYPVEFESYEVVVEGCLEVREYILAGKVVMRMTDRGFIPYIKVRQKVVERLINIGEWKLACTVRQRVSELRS

B1: ODB1-3×Flag, full-length O… DNA-BINDING PROTEIN 1 with C-terminal 3×Flag (protein, UniProt Q9FVV7 38-176)
chain: STETENDVPTSGISRPLAEILKELNKKVPDSVIRTRVEDGCSIKYIPWHIVNRIMNMHAPEWSGEVRSVTYSPDGNTVTVAYRVTLYGTDAEIFRESTGTTSVDDKGYGDAVQKAEAMAFRRACARFGLGLHLYHEDAL
B2: WTF9-NLuc (protein, UniProt Q9ZUZ6 25-387)
chain: T1 sequence

Tests used:
[1] = biological target: T1, WTF9-GFP, full-length WHAT’S THIS FACTOR 9 with C-terminal GFP (Arabidopsis thaliana); assay: co-IP; GFP-tagged bait and 3×Flag-tagged prey transiently co-expressed in Arabidopsis protoplasts; GFP Trap beads overnight at 4 °C; 50 mM Tris-Cl pH 7.5, 150 mM NaCl, 1 mM EDTA, 0.5% NP40 (wash 1% NP40), 1 mM DTT; blots with anti-GFP and anti-Flag
[2] = biological target: MID1-GFP, full-length MID1 with C-terminal GFP (Arabidopsis thaliana) (UniProt Q9LNC0); assay: as above
[3] = biological target: CLuc-MTSF1 (Arabidopsis thaliana) (UniProt Q9M9X9); assay: split reporter; firefly luciferase complementation imaging; NLuc and CLuc fusions co-infiltrated into N. benthamiana leaves, 22 °C for 72 h, CCD imaging
[4] = biological target: T2, CLuc-MID1 (Arabidopsis thaliana); assay: as above

Row | Molecule | binding [1] | binding [2] | binding [3] | binding [4]
1 | MCSF1-3×Flag, full-length MITOCHONDRIAL CAF-LIKE SPLICING FACTOR 1 with C-terminal 3×Flag (from UniProt Q8VYD9) | no binding | binds | – | –
2 | MID1-3×Flag, full-length MID1 with C-terminal 3×Flag (from UniProt Q9LNC0) | no binding | binds | – | –
3 | MID1-NLuc (from UniProt Q9LNC0) | – | – | binds | binds
4 | MTSF1-3×Flag, full-length MITOCHONDRIAL STABILITY FACTOR 1 with C-terminal 3×Flag (from UniProt Q9M9X9) | no binding | binds | – | –
5 | PMH2-3×Flag, full-length PUTATIVE MITOCHONDRIAL RNA HELICASE 2 with C-terminal 3×Flag (from UniProt Q9LUW5) | binds | binds | – | –
6 | nMAT1-3×Flag, full-length nMAT1 with C-terminal 3×Flag (Arabidopsis thaliana) | no binding | – | – | –
7 | B1 | – | binds | – | –
8 | B2 | – | – | no binding | –
